Results published in the supplement of paper PMC7666118.
Some of the results follow.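 Rule for the calls: active = dose-dependent thermal stabilisation significant by F-test of dose-response against flat model at 10% FDR; inactive = not significant.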

Protein sequences, listed by entry. Tags and fused reporters are not part of them. Lines headed by an entry give the natural chain unless they say otherwise; changes in a name come on top.
UniProt P49591: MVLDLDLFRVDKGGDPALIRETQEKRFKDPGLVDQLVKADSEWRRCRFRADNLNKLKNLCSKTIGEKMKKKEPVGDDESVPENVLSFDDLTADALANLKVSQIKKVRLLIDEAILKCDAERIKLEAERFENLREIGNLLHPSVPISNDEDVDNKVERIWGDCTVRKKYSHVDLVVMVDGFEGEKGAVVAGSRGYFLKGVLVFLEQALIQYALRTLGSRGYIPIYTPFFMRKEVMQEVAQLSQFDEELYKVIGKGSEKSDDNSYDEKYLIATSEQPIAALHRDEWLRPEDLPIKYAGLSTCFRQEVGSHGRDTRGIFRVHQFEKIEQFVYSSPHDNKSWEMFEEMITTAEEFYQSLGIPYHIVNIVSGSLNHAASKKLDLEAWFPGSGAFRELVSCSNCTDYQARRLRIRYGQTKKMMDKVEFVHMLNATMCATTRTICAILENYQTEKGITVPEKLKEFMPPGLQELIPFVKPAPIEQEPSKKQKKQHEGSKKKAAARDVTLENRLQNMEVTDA

Each molecule was assayed against SARS (UniProt P49591) (assay: dose-dependent thermal stabilisation call (2D-TPP, DLPTP, 10% FDR) (binary (1 = stabilised)); higher = stabilised by the compound). Details: system: Jurkat gel-filtered lysate; concentration range 1-500 µM.
Description: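 2D thermal proteome profiling in gel-filtered Jurkat E6.1 lysate (2 mg/ml) treated with NaGTP (0, 1, 10, 100, 500 uM) for 10 min at room temperature, then heated 3 min at one of 12 temperatures (42-63.9 C). Soluble protein was quantified by TMT10 MS. The value is the DLPTP call of the paper: dose-dependent thermal stabilisation over all temperatures at 10% FDR (F-test of a dose-response against a flat model); one experiment, one call per tested protein.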

Q: How did the “dose-dependent thermal stabilisation call” value turn out when `Nc1nc2c(ncn2[C@@H]2O[C@H](COP(=O)(O)OP(=O)(O)OP(=O)(O)O)[C@@H](O)[C@H]2O)c(=O)[nH]1` was run?
A: inactive: 0
